Laboratory results from publication PMC4735494.
Results are given in words; binding and its absence hold for the method and conditions named. For part of these data: A result given as binding can be weak or reduced; the word gives no strength. Where a sequence is shown, tags or fusion partners need not be part of it.

Legend:
Assay in all cases: two-hybrid; GAL4-based system (Matchmaker Gold, Clontech), yeast strain Y2HGold; growth on SD/-Trp-Leu-His-Ade plates with X-α-gal and Aureobasidin A
[1] = target: SsSSVP1^∆SP single-point mutant C81A, yeast two-hybrid fusion (Sclerotinia sclerotiorum)
[2] = target: SsSSVP1^∆SP single-point mutant C54A, yeast two-hybrid fusion (Sclerotinia sclerotiorum)
[3] = target: SsSSVP1^∆SP-C38A, yeast two-hybrid fusion (Sclerotinia sclerotiorum)
[4] = target: SsSSVP1^∆SP single-point mutant C95A, yeast two-hybrid fusion (Sclerotinia sclerotiorum)
[5] = target: SsSSVP1^∆SP single-point mutant C117A, yeast two-hybrid fusion (Sclerotinia sclerotiorum)
[6] = target: SsSSVP1^∆SP-C38A-C44A (double-point mutant), yeast two-hybrid fusion (Sclerotinia sclerotiorum)
[7] = target: SsSSVP1^∆SP single-point mutant C92A, yeast two-hybrid fusion (Sclerotinia sclerotiorum)
[8] = target: SsSSVP1^∆SP single-point mutant C79A, yeast two-hybrid fusion (Sclerotinia sclerotiorum)
[9] = target: SsSSVP1^∆SP-C44A, yeast two-hybrid fusion (Sclerotinia sclerotiorum)

B1: QCR8 (AT3G10860), subunit 8 of cytochrome b-c1 complex, yeast two-hybrid fusion (protein, UniProt Q9SG91 1-72)
chain: MGKQPVKLKAVVYALSPFQQKIMTGLWKDLPEKIHHKVSENWISATLLVTPVVGTYWYAQYFKEQEKLEHRF
binding [1]: binds | binding [2]: binds | binding [3]: binds | binding [4]: binds | binding [5]: binds | binding [6]: no binding | binding [7]: binds | binding [8]: binds | binding [9]: binds
